Assay results from patent publication US20260274833A1 (NiKang Therapeutics, Inc., priority 2022, published 2026).
Structures were worked out from names or drawings and are uncertain.

Molecular target: CDK2 (Homo sapiens, UniProt P24941)
Assay: Phospho-RB measurement in OVCAR3 cells (HTRF phospho-RB cellular kit)
Conditions: read-out: CDK2 IC50, inhibition of RB phosphorylation at S807/811 (HTRF, TR-FRET ratio 665/620), 24 h compound treatment, 0.3 to 10,000 nM
Description: Biological Example 1: Phospho-RB Measurement in OVCAR3 Cells
The ability of compounds of Formula (I) to inhibit CDK2 was determined in OVCAR3 cells by measuring inhibition of phosphorylation of RB protein at S780 and S807/811. Phosphorylation of RB protein at S807/811 were measured using HTRF phospho-RB cellular kits (Cat #64RBS807PEG) from Cisbio.
On Day 1, OVCAR3 cells were seeded into 96-well tissue-culture treated plates at 20,000 cells/well in 200 μL and incubated overnight at 37° C. in CO2 atmosphere. On Day 2, the cells were treated with test compounds at concentrations from 0.3 to 10,000 nM using HP D300 digital dispenser. Twenty-four hours after compound treatment, cell culture media was removed by flicking the plate and tapping the plate against clean paper towel. Immediately 30 μL 1× lysis buffer was supplemented from the kit and the plate was incubated at room temperature on shaker for 30 min. After homogenization by pipetting up and down, 8 μL cell lysate from 96-well cell culture plate was transferred to 384-well small volume white detection plate. […]
Detection plates were incubated for 4 h at room temperature and read on ClarioStar (BMG Labtech) in TR-FRET mode ([…]). […] Half maximal inhibition concentration (IC50) values are calculated with a four-parameter logistic fit using GraphPad Prism (version 8; La Jolla, CA).

Compound O=S1(=O)CC2(CC(Nc3nccc(-c4sc(N5C6CCC5CN(CC(F)(F)F)C6)nc4-c4cccc(NS(=O)(=O)N5CCc6ccc(Cl)cc65)c4F)n3)C2)C1 has an IC50 of 222 nM.
